Some of the results follow.

The chains behind the UniProt entries cited, without tags or fusion partners.
UniProt Q0JBA9, entry or part of it: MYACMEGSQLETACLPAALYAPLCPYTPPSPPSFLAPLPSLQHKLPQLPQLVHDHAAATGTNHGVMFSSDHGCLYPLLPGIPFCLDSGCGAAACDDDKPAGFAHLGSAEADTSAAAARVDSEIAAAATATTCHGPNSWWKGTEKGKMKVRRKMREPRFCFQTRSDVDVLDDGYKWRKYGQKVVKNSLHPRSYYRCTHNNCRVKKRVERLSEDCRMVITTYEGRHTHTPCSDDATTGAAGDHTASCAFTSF

This assay deals with OsWRKY34 (Oryza sativa, UniProt Q0JBA9 1-250). The experiment in a line: protein-binding microarray (RPBM); PBS, 2% BSA, 51.3 ng/ul salmon testes DNA, 50 uM zinc acetate, 200 nM TF, 25 C, 1 h; high values mean tight binding. The conditions noted are these: protein: recombinant; tags: N-terminal polyhistidine and DsRed monomer fusion (pET32a); label: CyDye5-dUTP incorporated in the synthesized complementary strand; 3' TTTTT single-stranded linker to array surface; dsDNA, one strand shown. Put shortly:
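The binding signal is fluorescence intensity per array feature (arbitrary units). Readings came from an Axon 4000B scanner after a washed, 2% BSA-blocked, double-stranded custom Agilent array had been incubated for 1 h at 25 °C with 200 nM protein and 50 µM zinc acetate. The protein was a Ni–NTA-purified transcription factor fused N-terminally to polyhistidine and DsRed, expressed in E. coli BL21-CodonPlus.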
On to “TCCCTTTTTCCTTCTTTTTTCTCCCTTTTTATCCTTTTTTCGGAGTCACCTAGTGCAG”, for which the binding signal is 14900 fluorescence intensity (a.u.).
For “AAACGTTTCTACTTTGGTCAAAGTCAAACTGCTTTATATTCGGAGTCACCTAGTGCAG” the value was 10700 fluorescence intensity (a.u.); for “GTGAGGAAATGGATGTTGATAAGTTGGGTTGTTAGCTTTACGGAGTCACCTAGTGCAG”, 12000 fluorescence intensity (a.u.); for “AGCTTTATATTACCCGCGTCCTAAAAAGATTACAGTTTTTCGGAGTCACCTAGTGCAG”, 8190 fluorescence intensity (a.u.).
Regarding “GTTTGTGGTTCAGTTTTTGTCCCCATGGGTCTCTTAGCGGCGGAGTCACCTAGTGCAG”, the binding signal is 9120 fluorescence intensity (a.u.).
For “ACGTCATCCCACCGCGGCTGCTTTCCATTTCCGCCACAGCCGGAGTCACCTAGTGCAG” the value was 12600 fluorescence intensity (a.u.); for “GGCAGGCAAGGGGAGGGGCAGGAAGAAGGGAAGAATTGAACGGAGTCACCTAGTGCAG”, 9270 fluorescence intensity (a.u.); for “CCCTATTTATACAGCTCAGCACCCTCACTCCCACTCACAACGGAGTCACCTAGTGCAG”, 11300 fluorescence intensity (a.u.).
Regarding “TATTCAACTTGCGTCAAAATTAGATCCTTACAATTCTCTCCGGAGTCACCTAGTGCAG”, the binding signal was 8290 fluorescence intensity (a.u.).
For “AGCCACACCCCAACTTTAACACGTCTCAGTTGACTATAAACGGAGTCACCTAGTGCAG” the value was 8300 fluorescence intensity (a.u.); for “GTCCGCCTATGAGTCTATCATTCCTCCTTTTTTCCCTTCTCGGAGTCACCTAGTGCAG”, 12800 fluorescence intensity (a.u.); for “GCTCATAGGGATAGGGTTTGCGTGCATGTGTTTATAGGGGCGGAGTCACCTAGTGCAG”, 12500 fluorescence intensity (a.u.).
Turning to “GGAGTATGACAGGTGGGGCCGCGTCAGGGGTATTTTGGTCCGGAGTCACCTAGTGCAG”, the binding signal is 8480 fluorescence intensity (a.u.).
For the sequence “ACATCACTACATCAGAGCTTGAAGCTCTCTTCTCTCTCTCCGGAGTCACCTAGTGCAG”, the binding signal was 8160 fluorescence intensity (a.u.).
For “CGTCTCCTGCTCGAGTCATCGTCCCCACTGCGTGCACAAGCGGAGTCACCTAGTGCAG” the value was 8910 fluorescence intensity (a.u.).
In the case of “GGTCAAGGCGACATTGCTACTCTTTGCCTATAAATCAATCCGGAGTCACCTAGTGCAG”, the binding signal is 8100 fluorescence intensity (a.u.).
The value for “GCCGTCCTGCAGTTCCTATTTATTTCTTTTGGTGTGTGTGCGGAGTCACCTAGTGCAG” was 8390 fluorescence intensity (a.u.); that for “CTAACAAGTACACCTTGATTGAAGTGGATTTTATTATTACCGGAGTCACCTAGTGCAG” was 8930 fluorescence intensity (a.u.).
The value for “TTTCTGTATCTTTGACATCGGCGCTCCTAATATGTCACCGCGGAGTCACCTAGTGCAG” was 9170 fluorescence intensity (a.u.); that for “CTGCAGCTACCAACCTCCTCCCGGCGCGCTTGCTTTCTGCCGGAGTCACCTAGTGCAG” was 8490 fluorescence intensity (a.u.); that for “CAACCCCACCGCCGCCGCCGCAAACCGTCTCGCCGTCGCCCGGAGTCACCTAGTGCAG” was 11600 fluorescence intensity (a.u.).
For “GGATTGTTTTTGGTATAGCTCCAACTCCTAAATTTAGCTCCGGAGTCACCTAGTGCAG” the value was 8480 fluorescence intensity (a.u.); for “ACATCTGTAAAAATCGTGCTCTATTTTCGCATGCGACTCTCGGAGTCACCTAGTGCAG”, 9450 fluorescence intensity (a.u.); for “TACCACCTCTCATGTCTCCTATGTCGATCTAAACATTTCTCGGAGTCACCTAGTGCAG”, 9460 fluorescence intensity (a.u.).
On to “GGGCCCACCACCCAACCCACCTCTCCTCTCCCGCGGTCAACGGAGTCACCTAGTGCAG”, for which the binding signal was 10400 fluorescence intensity (a.u.).
The value for “CCTCTTGTTGACCACCGCTCATTGCCCTCCCATCAGTTGCCGGAGTCACCTAGTGCAG” was 8320 fluorescence intensity (a.u.).
Regarding “TATGGTTGGTTCTTATGTGTCCCTAAGCGTGCAAAAAATACGGAGTCACCTAGTGCAG”, the binding signal was 12000 fluorescence intensity (a.u.).
The value for “TCATCTGTATGATATATAGTACTACATCTTTTGACATTTTCGGAGTCACCTAGTGCAG” was 10300 fluorescence intensity (a.u.).
For “CCGTTTCTTGAATTCGTCGCTTCTTTTGCTGTTCGATTCTCGGAGTCACCTAGTGCAG” the value was 12800 fluorescence intensity (a.u.); for “GTGCGGCCATATCGGCCCGATTGAGATTACTTCCTTGTGACGGAGTCACCTAGTGCAG”, 8080 fluorescence intensity (a.u.); for “GAATGTAATCATCTTCTCTCTAATCTAATACACACAGTACCGGAGTCACCTAGTGCAG”, 8120 fluorescence intensity (a.u.).
“ATTCCCACGCAACATTGTCCCCGCGGAGTCCACAGAGAAACGGAGTCACCTAGTGCAG”: the binding signal was 8290 fluorescence intensity (a.u.).
The value for “ACCTGCACCCGGACTTCCCTTATTCTTCTGATTCATCCTGCGGAGTCACCTAGTGCAG” was 8050 fluorescence intensity (a.u.).
For “CGAATCGATATGGGCCGTTAGATCTCCTTTTGTCTCTTTACGGAGTCACCTAGTGCAG” the value was 8520 fluorescence intensity (a.u.).
The value for “GTAGGGGTAGGGGTGGCGTGGCGTGTGCCAATGACCTAACCGGAGTCACCTAGTGCAG” was 11300 fluorescence intensity (a.u.).
Take “TCTGCCGTTTGTATAGTAGCTCGATCTTGTTCCTGCCAAACGGAGTCACCTAGTGCAG”: the binding signal is 8630 fluorescence intensity (a.u.).
With “ACATGCCCATGCGCGACACGTGCACCTCCTCATCCAAACTCGGAGTCACCTAGTGCAG”, the binding signal is 8280 fluorescence intensity (a.u.).
For “AGCAGTTGACCAGCGGGCTACAAGTCAACTCCCGGCCCATCGGAGTCACCTAGTGCAG” the value was 8620 fluorescence intensity (a.u.).
For “TATTGATCGCGTCAGCTTCCACTTGCGTTGTTCTTTGCGGCGGAGTCACCTAGTGCAG” the value was 8580 fluorescence intensity (a.u.); for “AATCCCACCGCCTCAATCCACCACCGCCAAGTTTCAAATCCGGAGTCACCTAGTGCAG”, 8090 fluorescence intensity (a.u.); for “CATTCAGTATTATATTGGTTTTTTATGGGATGGAGAGAGACGGAGTCACCTAGTGCAG”, 8200 fluorescence intensity (a.u.).
The value for “CCAGCATAATAGACTAGCATCCCGAATATACCCCTGCCATCGGAGTCACCTAGTGCAG” was 8980 fluorescence intensity (a.u.).
